Article PMC10378570
These are yes or no findings as the source states them, for the method shown. Binding seen in cells or lysates may run through a third protein. Some binding calls cover weakened binding; strength is not graded here. For some of these results: Sequences can lack the tags named with a protein.

Sequences of proteins named here, by UniProt entry; tags and fusion partners are left off.
UniProt P08151: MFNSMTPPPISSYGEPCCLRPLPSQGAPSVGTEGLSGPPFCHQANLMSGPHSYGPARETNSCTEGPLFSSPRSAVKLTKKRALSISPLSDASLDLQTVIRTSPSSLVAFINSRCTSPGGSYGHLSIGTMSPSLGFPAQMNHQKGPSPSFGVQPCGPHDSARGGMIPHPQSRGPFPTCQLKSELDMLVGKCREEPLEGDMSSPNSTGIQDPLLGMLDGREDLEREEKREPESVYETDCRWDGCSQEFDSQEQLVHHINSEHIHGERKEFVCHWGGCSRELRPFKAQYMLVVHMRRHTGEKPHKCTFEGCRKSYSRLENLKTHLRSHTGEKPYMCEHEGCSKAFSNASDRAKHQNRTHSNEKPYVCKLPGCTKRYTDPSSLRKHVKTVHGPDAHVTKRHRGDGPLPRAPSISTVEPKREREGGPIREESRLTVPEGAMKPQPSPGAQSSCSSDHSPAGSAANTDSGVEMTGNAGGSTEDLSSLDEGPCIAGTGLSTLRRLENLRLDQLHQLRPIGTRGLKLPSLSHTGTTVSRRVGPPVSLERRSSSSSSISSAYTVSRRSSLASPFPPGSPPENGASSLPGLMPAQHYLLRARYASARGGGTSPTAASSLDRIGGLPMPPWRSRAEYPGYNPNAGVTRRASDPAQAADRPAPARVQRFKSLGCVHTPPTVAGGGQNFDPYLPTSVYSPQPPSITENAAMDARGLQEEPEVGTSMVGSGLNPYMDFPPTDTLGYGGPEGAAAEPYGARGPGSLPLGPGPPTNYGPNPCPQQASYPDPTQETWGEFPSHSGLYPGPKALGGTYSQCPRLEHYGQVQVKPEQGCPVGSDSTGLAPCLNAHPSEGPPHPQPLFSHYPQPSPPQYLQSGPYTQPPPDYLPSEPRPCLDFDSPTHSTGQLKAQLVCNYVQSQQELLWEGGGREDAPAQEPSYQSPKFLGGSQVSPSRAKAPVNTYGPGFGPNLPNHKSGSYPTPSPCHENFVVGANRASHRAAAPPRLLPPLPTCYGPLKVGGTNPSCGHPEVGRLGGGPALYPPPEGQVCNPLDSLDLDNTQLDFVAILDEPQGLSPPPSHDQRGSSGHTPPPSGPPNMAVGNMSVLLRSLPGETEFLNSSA
UniProt P10070: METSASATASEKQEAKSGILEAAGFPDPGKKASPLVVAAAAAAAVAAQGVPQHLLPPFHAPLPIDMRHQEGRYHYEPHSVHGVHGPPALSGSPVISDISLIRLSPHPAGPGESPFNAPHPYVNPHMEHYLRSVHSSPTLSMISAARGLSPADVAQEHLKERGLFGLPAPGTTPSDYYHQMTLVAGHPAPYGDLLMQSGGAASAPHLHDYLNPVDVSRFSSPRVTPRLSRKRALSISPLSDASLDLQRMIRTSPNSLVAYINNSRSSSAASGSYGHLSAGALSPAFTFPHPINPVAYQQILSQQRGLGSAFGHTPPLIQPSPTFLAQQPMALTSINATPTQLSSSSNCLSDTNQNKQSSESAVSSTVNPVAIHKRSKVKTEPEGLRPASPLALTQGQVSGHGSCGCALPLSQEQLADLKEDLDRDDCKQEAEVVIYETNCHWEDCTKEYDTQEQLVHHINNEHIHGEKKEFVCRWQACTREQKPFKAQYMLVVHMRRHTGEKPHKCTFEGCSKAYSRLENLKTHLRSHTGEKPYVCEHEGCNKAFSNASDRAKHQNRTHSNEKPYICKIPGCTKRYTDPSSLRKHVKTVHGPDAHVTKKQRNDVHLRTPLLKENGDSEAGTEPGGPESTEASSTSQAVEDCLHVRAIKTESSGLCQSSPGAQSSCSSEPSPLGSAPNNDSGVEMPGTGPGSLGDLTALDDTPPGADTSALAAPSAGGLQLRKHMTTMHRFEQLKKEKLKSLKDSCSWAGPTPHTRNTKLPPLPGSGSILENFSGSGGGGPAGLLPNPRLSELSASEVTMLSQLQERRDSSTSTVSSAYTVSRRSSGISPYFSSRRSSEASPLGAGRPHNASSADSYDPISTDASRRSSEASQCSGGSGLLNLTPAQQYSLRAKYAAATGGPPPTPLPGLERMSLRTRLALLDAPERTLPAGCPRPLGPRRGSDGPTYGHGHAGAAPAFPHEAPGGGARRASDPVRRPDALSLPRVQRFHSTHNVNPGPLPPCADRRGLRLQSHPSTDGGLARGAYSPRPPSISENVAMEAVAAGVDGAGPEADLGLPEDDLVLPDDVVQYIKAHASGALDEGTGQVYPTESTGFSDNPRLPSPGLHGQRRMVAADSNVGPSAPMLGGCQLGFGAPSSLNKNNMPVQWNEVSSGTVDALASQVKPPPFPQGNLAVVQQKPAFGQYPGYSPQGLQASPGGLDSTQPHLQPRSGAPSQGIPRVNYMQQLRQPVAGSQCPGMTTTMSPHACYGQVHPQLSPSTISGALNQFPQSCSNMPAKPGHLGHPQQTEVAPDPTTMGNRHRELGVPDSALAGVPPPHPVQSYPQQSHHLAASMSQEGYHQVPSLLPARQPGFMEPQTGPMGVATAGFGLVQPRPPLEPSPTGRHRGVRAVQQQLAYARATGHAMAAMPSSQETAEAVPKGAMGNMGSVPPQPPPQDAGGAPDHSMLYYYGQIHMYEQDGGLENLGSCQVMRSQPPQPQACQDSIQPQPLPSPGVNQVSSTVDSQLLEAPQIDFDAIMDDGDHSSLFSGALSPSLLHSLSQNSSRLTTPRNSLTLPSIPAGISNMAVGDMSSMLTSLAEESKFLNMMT

Legend:
[1] = target: T1, Flag-tagged DAX1 (dosage-sensitive sex reversal adrenal hypoplasia congenital critical region on X chromosome, gene 1) (UniProt P51843); assay: co-IP; HEK293 cells co-transfected for 48 h; lysis in 50 mM Tris-HCl pH 7.4, 150 mM NaCl, 1 mM EDTA, 1% Triton X-100, 1 mM PMSF; M2 FLAG-agarose, 16 h at 4 °C, to precipitate Flag-DAX1; blots with anti-HA, anti-MYC or anti-FLAG
T1 sequence: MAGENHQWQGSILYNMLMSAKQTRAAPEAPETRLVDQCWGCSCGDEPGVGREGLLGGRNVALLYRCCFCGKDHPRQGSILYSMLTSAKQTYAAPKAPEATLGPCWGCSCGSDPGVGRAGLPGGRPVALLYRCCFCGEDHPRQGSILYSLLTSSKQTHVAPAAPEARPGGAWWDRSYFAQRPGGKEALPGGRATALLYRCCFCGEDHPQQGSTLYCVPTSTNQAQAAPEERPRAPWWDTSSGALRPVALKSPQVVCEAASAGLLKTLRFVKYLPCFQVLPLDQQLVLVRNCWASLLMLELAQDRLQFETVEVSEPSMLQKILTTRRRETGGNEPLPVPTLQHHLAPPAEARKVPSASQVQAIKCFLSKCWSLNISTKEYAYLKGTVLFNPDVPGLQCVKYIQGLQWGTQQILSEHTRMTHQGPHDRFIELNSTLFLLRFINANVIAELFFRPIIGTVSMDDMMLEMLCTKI

[2] = target: T2, endogenous DAX1 (human (endogenous in PC3 and DU145)) (UniProt P51843); assay: co-IP; endogenous proteins; 2 mg of PC3 or DU145 cell lysate; immunoprecipitation with anti-DAX1 (normal rabbit IgG as negative control); Western blot for GLI1 or GLI2
T2 sequence: T1 sequence

Row | Substance | binding [1] | binding [2]
1 | HA-tagged GLI1 (from UniProt P08151 1-1106) | binds | –
2 | MYC-tagged GLI2 (from UniProt P10070 1-1586) | binds | –
3 | endogenous GLI1 (from UniProt P08151 1-1106) | – | binds
4 | endogenous GLI2 (from UniProt P10070 1-1586) | – | binds
